Data on 42 sequences can be found in PMC7819943, “Rice protein-binding microarrays: a tool to detect cis-acting elements near promoter regions in rice”.

The chains behind the UniProt entries cited, without tags or fusion partners.
UniProt Q0JBA9, entry or part of it: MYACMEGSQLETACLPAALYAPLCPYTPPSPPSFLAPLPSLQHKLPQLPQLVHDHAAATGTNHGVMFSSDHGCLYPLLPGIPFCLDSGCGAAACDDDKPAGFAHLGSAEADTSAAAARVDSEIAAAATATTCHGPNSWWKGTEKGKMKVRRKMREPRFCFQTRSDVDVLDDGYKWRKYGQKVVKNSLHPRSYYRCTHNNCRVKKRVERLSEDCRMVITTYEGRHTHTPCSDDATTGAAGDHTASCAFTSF

The list shows a part of the results.

The test deals with OsWRKY34 (Oryza sativa, UniProt Q0JBA9 1-250). As to the kind of experiment: protein-binding microarray (RPBM); PBS, 2% BSA, 51.3 ng/ul salmon testes DNA, 50 uM zinc acetate, 200 nM TF, 25 C, 1 h; high values mean tight binding. As to conditions: protein: recombinant; tags: N-terminal polyhistidine and DsRed monomer fusion (pET32a); label: CyDye5-dUTP incorporated in the synthesized complementary strand; 3' TTTTT single-stranded linker to array surface; dsDNA, one strand shown. A digest of the protocol:
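Transcription factors were each fused at the N-terminus to a polyhistidine tag plus DsRed and expressed in E. coli BL21-CodonPlus before Ni–NTA purification. Binding to a double-stranded custom Agilent array was carried out with 200 nM protein at 25 °C for 1 h in PBS, 2% BSA, salmon testes DNA and 50 µM zinc acetate. The binding signal is per-feature fluorescence intensity, in arbitrary units, on an Axon 4000B scanner.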
For the sequence “TTTCATCAGCTCATCACTTCTGCATGCATGTTATATTCTTCGGAGTCACCTAGTGCAG”, the binding signal was 14300 fluorescence intensity (a.u.).

As to “ACTCATGGTGACGTGGACGAATCTCGAACATCCATTTCTCCGGAGTCACCTAGTGCAG”, the binding signal was 8240 fluorescence intensity (a.u.).

As to “AACAAAAGCACCCCTGTCCGATCCTATATTTGTTGCAGTTCGGAGTCACCTAGTGCAG”, the binding signal was 9240 fluorescence intensity (a.u.).

Take “TGTTTGCACCTTATTACGGTTCTGCGCGCTCTCTCTCTCGCGGAGTCACCTAGTGCAG”: the binding signal was 8560 fluorescence intensity (a.u.).

Take “GTACCTAATCCGTGCCAAGATCATGCTTTTTTTCCTCAAACGGAGTCACCTAGTGCAG”: the binding signal is 8930 fluorescence intensity (a.u.).

Consider “GCTATAGCCTACAGCTAGTACAACACCCACGCGTCTACTACGGAGTCACCTAGTGCAG”, for which the binding signal is 8110 fluorescence intensity (a.u.).

As for “GATAATCAATCCCACGTGTATGTCAGTGGGCCCCGCGGGCCGGAGTCACCTAGTGCAG”, the binding signal is 8210 fluorescence intensity (a.u.).

Consider “CTCCTTGTTGCTTGCTTGCTTGGTCTTTTCAGCTTCCTTTCGGAGTCACCTAGTGCAG”, for which the binding signal was 10800 fluorescence intensity (a.u.).

In the case of “TGTTCTTCTCTTGTAGCTGTACTGCCCAACCCTGTTATTCCGGAGTCACCTAGTGCAG”, the binding signal was 8590 fluorescence intensity (a.u.).

On to “CCCCAAAACCTTCTCATTTTTTTTGTAGACCAAGCCAAGCCGGAGTCACCTAGTGCAG”, for which the binding signal was 8610 fluorescence intensity (a.u.).

On to “TGTTGCCGTTTTAAAGCACTTTTTGCTATTTTGGATCTAACGGAGTCACCTAGTGCAG”, for which the binding signal is 8430 fluorescence intensity (a.u.).

For the sequence “AAATCGCCGACCCACACAACCCGCAACCCCACATCTCTCACGGAGTCACCTAGTGCAG”, the binding signal is 12500 fluorescence intensity (a.u.).

With “CTCATTGTTCAGTCTGACTGCCTGAGTCTTTTTCCTGGAACGGAGTCACCTAGTGCAG”, the binding signal is 10000 fluorescence intensity (a.u.).

In the case of “TTTGTCCCGATCAATAACAATCTTTCCTCTCGACGAAAGCCGGAGTCACCTAGTGCAG”, the binding signal is 8210 fluorescence intensity (a.u.).

Regarding “TGAGGGGTTTTTTATTCCAATAAATTGTTCGTTACCGTATCGGAGTCACCTAGTGCAG”, the binding signal was 8060 fluorescence intensity (a.u.).

With “GGAGGTGGAGGCGGCGGAGGAGGTGGTGGTGGAGGTGGAGCGGAGTCACCTAGTGCAG”, the binding signal is 17900 fluorescence intensity (a.u.).

With “AAGAATTACAAAACTCATGTGTTCCACCGCTACTAGCGACCGGAGTCACCTAGTGCAG”, the binding signal was 8300 fluorescence intensity (a.u.).

For the sequence “GGTATTTCAGTTCCTTTTAGCAGTCAAGTCATGATAGTTACGGAGTCACCTAGTGCAG”, the binding signal is 8100 fluorescence intensity (a.u.).

Take “ATACTACTTGCGCCTGTTTGGAGTCGAGACACATTGACAACGGAGTCACCTAGTGCAG”: the binding signal was 9210 fluorescence intensity (a.u.).

Regarding “AGCTTACCCAGCTCGCGCGAATGGCCTCCTACGACGGCGGCGGAGTCACCTAGTGCAG”, the binding signal was 9110 fluorescence intensity (a.u.).

Take “CTTTCGTCTTCGTCTTCGCCATCGTCGTCGGGACATCGCCCGGAGTCACCTAGTGCAG”: the binding signal is 8460 fluorescence intensity (a.u.).

As for “CACCACGCGTTCACACGGCCACGTCAGCCTACTACGCCTGCGGAGTCACCTAGTGCAG”, the binding signal was 8030 fluorescence intensity (a.u.).

As for “GTTCTCGTGTGGACTTTATTCCCTGCCGATCCGTTCCGGCCGGAGTCACCTAGTGCAG”, the binding signal is 10500 fluorescence intensity (a.u.).

As to “CTTCTTACGTATCGGTTTCGATTATTTTGGTTATTGTGTTCGGAGTCACCTAGTGCAG”, the binding signal was 12800 fluorescence intensity (a.u.).

Turning to “TTTCTAGGCGAGTTATAAGATTAGTTTTTTCATTCGTGTCCGGAGTCACCTAGTGCAG”, the binding signal was 8210 fluorescence intensity (a.u.).

Turning to “CTGGTTGGCTGGTTCTTCAGGATTTGGATCTGTGGTCCTGCGGAGTCACCTAGTGCAG”, the binding signal was 8400 fluorescence intensity (a.u.).

As for “CTTTTGAAGCTTGACGGGTTTTGACTTGGTGCACTGATTACGGAGTCACCTAGTGCAG”, the binding signal was 10100 fluorescence intensity (a.u.).

For “GGATAGCCTTGCCTAACGTTATTTTCTGTCAACTTCGACTCGGAGTCACCTAGTGCAG”, the binding signal is 9160 fluorescence intensity (a.u.).

Turning to “CTTATCCCGCGATCCGAACACCATCCACTCGCCGCGCCAACGGAGTCACCTAGTGCAG”, the binding signal was 9780 fluorescence intensity (a.u.).

As to “GTAATAGTCAATTCATACAATAGTTGTTTACTATACTATTCGGAGTCACCTAGTGCAG”, the binding signal is 8190 fluorescence intensity (a.u.).

For “TTTCCTCCATTTTCTCAATCCTACATTTCAAAGGAGCCCACGGAGTCACCTAGTGCAG”, the binding signal is 8690 fluorescence intensity (a.u.).

On to “TGCGTGACGTGGGGATGAGATTGCGTTGTTGCTGCGCCCGCGGAGTCACCTAGTGCAG”, for which the binding signal was 8830 fluorescence intensity (a.u.).

Take “TGTCTGTGTCAATTGTGCCATCCTAACCAAATGTTCGTAGCGGAGTCACCTAGTGCAG”: the binding signal is 8960 fluorescence intensity (a.u.).

In the case of “GTGCTCTTGTATCTTTTTAGCTATGTATATCCCTCGTGGACGGAGTCACCTAGTGCAG”, the binding signal is 8650 fluorescence intensity (a.u.).

Take “CGCTGCCGTCGCCGTGCCTTAGTCGCTCTCCTTCTCTCCACGGAGTCACCTAGTGCAG”: the binding signal is 9250 fluorescence intensity (a.u.).

In the case of “TCCTTCCACCTTTTTAATTTCTTTAATTTGCATGTCTCTCCGGAGTCACCTAGTGCAG”, the binding signal was 8390 fluorescence intensity (a.u.).

On to “ACCTCCTTGCCACCACTGCCTCGGTGCCAGCTGTGTCCTACGGAGTCACCTAGTGCAG”, for which the binding signal is 11500 fluorescence intensity (a.u.).

With “CCCACACGTCAGCCACCCCAAACAGCCCATCGCCACGCCACGGAGTCACCTAGTGCAG”, the binding signal is 8760 fluorescence intensity (a.u.).

For the sequence “CCCTGCTGCTTTTCTGGTTTCCTAATTATTCTCCTCAATTCGGAGTCACCTAGTGCAG”, the binding signal is 9880 fluorescence intensity (a.u.).

As for “TGCGTGTTTTGTCCGCTTTTGCATTCGATTTTCTTTGATGCGGAGTCACCTAGTGCAG”, the binding signal was 9260 fluorescence intensity (a.u.).

As for “ACGCCCTAATCCTCTCTCCTTCTCACATGCCGCCGCCGATCGGAGTCACCTAGTGCAG”, the binding signal is 9480 fluorescence intensity (a.u.).

On to “CACACCGTGCGCTGTGCTCCACTCCACCATCGCTCGCGACCGGAGTCACCTAGTGCAG”, for which the binding signal is 8290 fluorescence intensity (a.u.).
